Results from paper PMC7862700.
The list shows a part of the results, in another mix than the full data. For part of these data: At the low end of the ranking, values are background and their order means little. The list shows a part of the results. For part of these data: The source does not settle which construct or isoform was used.

Amino acid sequences for entries named in this document (tags omitted). A change or cut given only in a name is not applied to a line headed by its entry.
UniProt P32519: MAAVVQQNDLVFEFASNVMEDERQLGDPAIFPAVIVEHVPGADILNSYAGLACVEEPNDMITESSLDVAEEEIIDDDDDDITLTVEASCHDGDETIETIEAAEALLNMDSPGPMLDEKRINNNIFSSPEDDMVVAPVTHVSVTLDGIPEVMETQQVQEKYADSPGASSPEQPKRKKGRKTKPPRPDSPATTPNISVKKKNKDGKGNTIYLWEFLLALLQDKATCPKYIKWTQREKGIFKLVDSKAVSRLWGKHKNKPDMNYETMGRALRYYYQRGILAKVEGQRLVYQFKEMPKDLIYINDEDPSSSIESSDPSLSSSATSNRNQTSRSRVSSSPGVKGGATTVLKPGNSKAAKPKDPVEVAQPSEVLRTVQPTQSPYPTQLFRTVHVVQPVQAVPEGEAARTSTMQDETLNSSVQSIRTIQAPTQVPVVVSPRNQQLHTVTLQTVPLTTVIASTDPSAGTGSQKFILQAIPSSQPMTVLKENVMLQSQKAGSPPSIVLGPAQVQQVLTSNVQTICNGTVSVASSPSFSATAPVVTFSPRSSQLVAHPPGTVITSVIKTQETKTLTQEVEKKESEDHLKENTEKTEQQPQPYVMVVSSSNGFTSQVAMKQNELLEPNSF
UniProt P50549: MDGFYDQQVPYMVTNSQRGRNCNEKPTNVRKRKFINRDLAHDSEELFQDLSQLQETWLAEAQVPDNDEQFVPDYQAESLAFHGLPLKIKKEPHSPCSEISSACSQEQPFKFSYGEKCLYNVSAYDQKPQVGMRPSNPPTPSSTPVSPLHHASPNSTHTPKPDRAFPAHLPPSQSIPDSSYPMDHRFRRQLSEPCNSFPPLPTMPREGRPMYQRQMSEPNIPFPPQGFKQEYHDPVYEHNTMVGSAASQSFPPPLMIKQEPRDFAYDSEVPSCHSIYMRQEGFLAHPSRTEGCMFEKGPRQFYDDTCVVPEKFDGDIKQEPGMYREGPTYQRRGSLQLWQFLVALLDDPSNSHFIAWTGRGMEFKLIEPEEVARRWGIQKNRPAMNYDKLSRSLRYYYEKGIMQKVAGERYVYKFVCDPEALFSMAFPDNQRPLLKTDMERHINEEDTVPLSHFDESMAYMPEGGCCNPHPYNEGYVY

Experiments:
Test in all cases: DAPPL (digital affinity profiling via proximity ligation, sequencing)
Conditions in all cases: 10 mM Tris-HCl pH 7.5, 50 mM NaCl, 1 mM DTT, 4% glycerol, room temperature, 30 min; GST-TFs on glutathione beads, 16-mer random dsDNA library, 0.1% …; high values mean tight binding; double strand, one strand shown; scale: fold enrichment (6-mer frequency, TF over GST control)
[1] = target: T1, ERG (UniProt P11308)
T1 sequence: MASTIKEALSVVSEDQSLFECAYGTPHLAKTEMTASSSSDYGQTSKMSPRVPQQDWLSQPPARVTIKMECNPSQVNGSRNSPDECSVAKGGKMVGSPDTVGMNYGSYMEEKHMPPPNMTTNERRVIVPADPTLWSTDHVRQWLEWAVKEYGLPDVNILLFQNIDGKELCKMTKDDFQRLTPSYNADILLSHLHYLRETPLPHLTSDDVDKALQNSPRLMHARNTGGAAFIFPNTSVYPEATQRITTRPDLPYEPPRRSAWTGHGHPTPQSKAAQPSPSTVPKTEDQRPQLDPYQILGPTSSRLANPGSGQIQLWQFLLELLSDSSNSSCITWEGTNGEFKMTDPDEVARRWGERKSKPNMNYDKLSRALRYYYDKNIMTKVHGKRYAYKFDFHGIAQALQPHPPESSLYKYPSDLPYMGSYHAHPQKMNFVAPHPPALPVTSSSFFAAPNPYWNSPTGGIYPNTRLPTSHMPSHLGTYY

[2] = target: ELF1 (UniProt P32519)
[3] = target: T2, ELK4 (UniProt P28324-2)
T2 sequence: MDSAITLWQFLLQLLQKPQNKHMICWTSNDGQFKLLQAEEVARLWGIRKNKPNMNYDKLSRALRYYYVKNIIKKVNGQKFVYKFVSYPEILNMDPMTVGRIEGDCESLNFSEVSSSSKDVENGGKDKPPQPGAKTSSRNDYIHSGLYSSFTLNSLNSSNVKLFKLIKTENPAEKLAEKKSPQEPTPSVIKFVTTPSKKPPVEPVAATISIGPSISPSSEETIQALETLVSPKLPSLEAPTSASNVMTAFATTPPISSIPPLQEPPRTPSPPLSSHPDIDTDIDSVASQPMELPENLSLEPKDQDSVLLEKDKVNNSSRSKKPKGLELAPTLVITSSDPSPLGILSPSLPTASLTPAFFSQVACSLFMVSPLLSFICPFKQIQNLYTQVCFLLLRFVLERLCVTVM

[4] = target: T3, ETV4 (UniProt P43268)
T3 sequence: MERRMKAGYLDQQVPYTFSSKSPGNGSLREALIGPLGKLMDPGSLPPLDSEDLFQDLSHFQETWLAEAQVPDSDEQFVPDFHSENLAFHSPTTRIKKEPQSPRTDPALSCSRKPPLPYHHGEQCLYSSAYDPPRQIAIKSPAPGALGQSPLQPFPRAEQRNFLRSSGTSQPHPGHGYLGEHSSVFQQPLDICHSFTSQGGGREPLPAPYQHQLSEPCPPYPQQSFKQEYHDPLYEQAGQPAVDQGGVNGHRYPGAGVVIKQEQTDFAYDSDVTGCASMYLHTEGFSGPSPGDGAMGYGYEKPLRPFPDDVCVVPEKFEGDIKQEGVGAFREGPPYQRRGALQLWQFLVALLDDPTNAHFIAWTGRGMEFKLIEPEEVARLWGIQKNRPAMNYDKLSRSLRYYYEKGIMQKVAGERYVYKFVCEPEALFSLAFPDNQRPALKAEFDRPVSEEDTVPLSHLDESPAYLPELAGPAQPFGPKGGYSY

[5] = target: ETV1 (UniProt P50549)
[6] = target: T4, ERF (UniProt P50548)
T4 sequence: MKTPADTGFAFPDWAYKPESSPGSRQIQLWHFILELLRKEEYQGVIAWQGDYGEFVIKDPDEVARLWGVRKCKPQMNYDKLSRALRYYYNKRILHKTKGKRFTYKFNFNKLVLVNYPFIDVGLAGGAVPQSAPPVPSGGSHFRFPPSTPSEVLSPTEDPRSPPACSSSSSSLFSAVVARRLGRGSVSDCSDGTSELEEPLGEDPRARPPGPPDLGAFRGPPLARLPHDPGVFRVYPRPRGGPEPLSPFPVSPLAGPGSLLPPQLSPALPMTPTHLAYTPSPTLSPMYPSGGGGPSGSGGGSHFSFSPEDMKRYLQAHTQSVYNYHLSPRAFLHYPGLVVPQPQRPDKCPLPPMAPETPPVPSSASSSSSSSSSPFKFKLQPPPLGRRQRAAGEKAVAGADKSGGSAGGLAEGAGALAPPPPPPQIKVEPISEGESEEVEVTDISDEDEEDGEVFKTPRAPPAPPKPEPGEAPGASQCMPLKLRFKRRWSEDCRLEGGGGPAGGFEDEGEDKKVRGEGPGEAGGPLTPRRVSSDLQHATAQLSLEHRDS

| Sequence | binding signal [1] | binding signal [2] | binding signal [3] | binding signal [4] | binding signal [5] | binding signal [6] |
| --- | --- | --- | --- | --- | --- | --- |
| TCCGTG | 0.536 | 0.486 | 0.507 | 0.514 | 0.52 | 0.43 |
| TGAGAG | 0.558 | 0.568 | 0.59 | 0.532 | 0.566 | 0.651 |
| CGTTGA | 0.881 | 0.807 | 0.93 | 0.834 | 0.752 | 0.853 |
| CGGACT | 0.878 | 0.914 | 0.812 | 0.791 | 0.885 | 0.784 |
| AGTAGA | 0.745 | 0.757 | 0.717 | 0.805 | 0.796 | 0.783 |
| AGAGGT | 0.768 | 0.9 | 0.919 | 0.816 | 0.855 | 0.945 |
| CAGGCC | 0.782 | 0.744 | 0.725 | 0.751 | 0.745 | 0.683 |
| AGTGGG | 0.598 | 0.609 | 0.577 | 0.548 | 0.644 | 0.558 |
| AGTGAA | 0.926 | 0.892 | 0.837 | 0.866 | 0.913 | 0.845 |
| CAGGCG | 0.297 | 0.249 | 0.248 | 0.249 | 0.263 | 0.274 |
| GGCGAG | 0.567 | 0.546 | 0.495 | 0.535 | 0.549 | 0.552 |
| CGTGAT | 0.453 | 0.473 | 0.579 | 0.486 | 0.472 | 0.481 |
| CGAGAG | 0.399 | 0.403 | 0.392 | 0.384 | 0.342 | 0.383 |
| CATGGA | 0.885 | 0.866 | 0.919 | 0.876 | 0.902 | 0.993 |
| GTAAGG | 0.67 | 0.766 | 0.711 | 0.715 | 0.766 | 0.706 |
| GAGAGG | 0.481 | 0.515 | 0.492 | 0.487 | 0.484 | 0.497 |
| CTAGTC | 0.819 | 0.756 | 0.745 | 0.778 | 0.831 | 0.821 |
| GTTAGG | 0.839 | 0.824 | 0.974 | 0.818 | 0.767 | 0.79 |
| GAGATG | 0.712 | 0.708 | 0.696 | 0.68 | 0.633 | 0.748 |
| GTGAGG | 0.24 | 0.257 | 0.263 | 0.254 | 0.254 | 0.254 |

| Sequence | binding signal [1] | binding signal [2] | binding signal [3] | binding signal [4] | binding signal [5] | binding signal [6] |
| --- | --- | --- | --- | --- | --- | --- |
| CAGGTC | 0.693 | 0.657 | 0.775 | 0.693 | 0.746 | 0.696 |
| GGTGGC | 0.77 | 0.686 | 0.867 | 0.723 | 0.7 | 0.732 |
| TACAGT | 0.853 | 0.876 | 0.915 | 0.882 | 0.87 | 0.906 |
| TGAGCC | 0.805 | 0.904 | 0.777 | 0.89 | 0.771 | 0.802 |
| GCCCGT | 0.636 | 0.654 | 0.606 | 0.643 | 0.622 | 0.602 |
| GAAGAG | 0.898 | 0.885 | 0.805 | 0.882 | 0.94 | 0.913 |
| GGGATA | 0.791 | 0.782 | 0.77 | 0.707 | 0.794 | 0.774 |
| ACAGGC | 0.692 | 0.687 | 0.657 | 0.654 | 0.703 | 0.698 |
| GCGCTG | 0.834 | 0.912 | 0.883 | 0.908 | 0.899 | 0.984 |
| TGAGGT | 0.604 | 0.645 | 0.722 | 0.701 | 0.663 | 0.621 |
| CACAGG | 0.929 | 0.88 | 0.832 | 0.871 | 0.867 | 0.942 |
| GTGGAG | 0.418 | 0.39 | 0.505 | 0.39 | 0.466 | 0.399 |
| CCCAGC | 0.865 | 0.935 | 0.961 | 0.857 | 0.836 | 0.938 |
| GCAAGT | 0.841 | 0.812 | 0.757 | 0.828 | 0.776 | 0.87 |
| CGTGGA | 0.525 | 0.519 | 0.672 | 0.537 | 0.612 | 0.58 |
| TACCGT | 0.614 | 0.685 | 0.68 | 0.642 | 0.585 | 0.672 |
| GACGGT | 0.435 | 0.484 | 0.457 | 0.458 | 0.488 | 0.478 |
| ACCATG | 0.849 | 0.871 | 0.959 | 0.818 | 0.792 | 0.881 |
| GCTGGA | 0.792 | 0.845 | 0.741 | 0.841 | 0.812 | 0.825 |
| AAGGAC | 0.855 | 0.894 | 0.801 | 0.857 | 0.793 | 0.8 |

An excerpt of these results, bar-delimited.
Sequence | binding signal [1] | binding signal [2] | binding signal [3] | binding signal [4] | binding signal [5] | binding signal [6]
CCCAGC | 0.865 | 0.935 | 0.961 | 0.857 | 0.836 | 0.938
GCAAGT | 0.841 | 0.812 | 0.757 | 0.828 | 0.776 | 0.87

Later entries:

| Sequence | binding signal [1] | binding signal [2] | binding signal [3] | binding signal [4] | binding signal [5] | binding signal [6] |
| --- | --- | --- | --- | --- | --- | --- |
| AGTTGG | 0.49 | 0.49 | 0.451 | 0.465 | 0.451 | 0.472 |
| TGGGGA | 0.785 | 0.822 | 0.782 | 0.866 | 0.814 | 0.799 |
| AAGCCA | 0.885 | 0.879 | 1.02 | 0.843 | 0.92 | 0.848 |
| GCAGGC | 0.691 | 0.7 | 0.679 | 0.684 | 0.653 | 0.681 |
| GGCAGG | 0.611 | 0.595 | 0.572 | 0.566 | 0.596 | 0.57 |
| GAAGGA | 0.786 | 0.727 | 0.707 | 0.699 | 0.668 | 0.692 |
| CCAAGG | 0.928 | 0.969 | 0.946 | 0.911 | 0.873 | 0.891 |
| GAACGT | 0.422 | 0.406 | 0.389 | 0.386 | 0.424 | 0.406 |
| TGGGAG | 0.447 | 0.439 | 0.363 | 0.434 | 0.507 | 0.479 |
| AGATTG | 0.844 | 0.813 | 0.834 | 0.794 | 0.865 | 0.838 |
| GACTAA | 0.901 | 0.925 | 0.797 | 0.969 | 0.926 | 0.925 |
| ACGTCG | 0.608 | 0.636 | 0.55 | 0.609 | 0.688 | 0.636 |
| GACGTA | 0.727 | 0.715 | 0.786 | 0.666 | 0.742 | 0.7 |
| GAGTTG | 0.457 | 0.526 | 0.504 | 0.544 | 0.46 | 0.511 |
| CAGGAG | 0.276 | 0.265 | 0.239 | 0.252 | 0.238 | 0.249 |
| GCACCG | 0.749 | 0.772 | 0.749 | 0.723 | 0.689 | 0.784 |
| GAACGC | 0.712 | 0.751 | 0.771 | 0.735 | 0.769 | 0.798 |
| GGCATC | 0.869 | 0.878 | 0.888 | 0.901 | 0.858 | 0.834 |
| GGGCCA | 0.693 | 0.746 | 0.683 | 0.694 | 0.68 | 0.759 |
| AGTCAT | 0.627 | 0.547 | 0.591 | 0.603 | 0.595 | 0.624 |
